The list is a part of this screen's results and no random one: it gathers tests that were run many times, whatever their T/C, doses with no T/C, and many T/C values between a quarter and a half above the control. Other doses and runs of a compound stand elsewhere. T/C is the treated group as % of the vehicle group. Some doses have a count of surviving animals in place of a T/C: the source files T/C as zero there, which appears to mark a toxic dose or a test without result, not a measured value. Some doses without a T/C left all or most animals alive at the check, yet need not have been tolerated: survival well below the control is almost never listed, so the zero probably covers shortened survival too. Counts of survivors are from the toxicity check (mostly the fifth day) where no day follows; animals may have died later. Schedules are NCI's codes, read here as Q, the interval in days (D) or hours (H), X, the number of doses. Some entries hold several experiments; their values stand side by side, smallest first. For survival time, the PubChem record calls one and a half times the control and up active, and a quarter to a half above the control has no call in these data; cut-offs in other NCI protocols can differ. Some T/C values are followed by the survivors on the day toxicity was checked, most often the fifth; without a count, all were alive then.
Tested on: P388 leukemia ip, CD2F1 mice, survival T/C
Experiment: NCI In Vivo Anticancer Drug Screen. Data for tumor model P388 Leukemia (intraperitoneal) in CD2F1 (CDF1) mice
Details: T/C endpoint: median survival time, higher T/C = longer survival
[1] = dose: 25.0 mg/kg/injection, schedule: Q01DX009 (ip), vehicle: saline with Tween-80
[2] = dose: 200.0 mg/kg/injection, schedule: Q01DX009 (ip), vehicle: saline with Tween-80
[3] = dose: 100.0 mg/kg/injection, schedule: Q01DX009 (ip), vehicle: Klucel (hydroxypropylcellulose) (HPC)
[4] = dose: 200.0 mg/kg/injection, schedule: Q01DX009 (ip), vehicle: Klucel (hydroxypropylcellulose) (HPC)

## C/C=C/[Se]c1ccccc1
[1]
  survivor count: 6 of 6
dose: 50.0 mg/kg/injection, schedule: Q01DX009 (ip), vehicle: saline with Tween-80, evaluated on day 20
  T/C: 99 % of control
dose: 50.0 mg/kg/injection, schedule: Q01DX009 (ip), vehicle: saline with Tween-80, evaluated on day 30
  T/C: 103, 116, 128 % of control
[2]
  survivor count: 0 of 6, 1 of 6, 4 of 6

## Cn1/c(=N\NC(=O)c2ccncc2)sc2ccccc21
dose: 50.0 mg/kg/injection, schedule: Q01DX009 (ip), vehicle: Klucel (hydroxypropylcellulose) (HPC)
  survivor count: 6 of 6
[3]
  survivor count: 5 of 6
[4]
  survivor count: 0 of 6

## NC(=Nc1ccccc1)SCCCCCCSC(N)=Nc1ccccc1
[4]
  survivor count: 0 of 6

## COc1ccc(/C=C/c2ccc3ccccc3[n+]2C)cc1Br
dose: 100.0 mg/kg/injection, schedule: Q01DX005 (ip), vehicle: Klucel (hydroxypropylcellulose) (HPC)
  survivor count: 0 of 6
dose: 200.0 mg/kg/injection, schedule: Q01DX005 (ip), vehicle: Klucel (hydroxypropylcellulose) (HPC)
  survivor count: 0 of 6

## CCCC(=O)O[C@H]1/C(=C/C(=O)OC)C[C@H]2C[C@H]([C@@H](C)O)OC(=O)C[C@H](O)C[C@@H]3C[C@H](OC(=O)CC(C)C)C(C)(C)[C@](O)(C[C@@H]4C/C(=C\C(=O)OC)C[C@H](/C=C/C(C)(C)[C@]1(O)O2)O4)O3
dose: 0.03 mg/kg/injection, schedule: Q01DX009 (ip), vehicle: saline + alcohol
  T/C: 130 % of control

## NC(=S)N/N=C1\C(=O)NC(=O)C1c1ccccc1 (stereo not given)
dose: 200.0 mg/kg/injection, schedule: Q01DX005 (ip), vehicle: saline with Tween-80
  survivor count: 2 of 5

## CN[C@H]1CCc2cc(OC)c(OC)c(OC)c2-c2ccc(O)c(=O)cc21
dose: 160.0 mg/kg/injection, schedule: Q01DX009 (ip), vehicle: Klucel (hydroxypropylcellulose) (HPC)
  T/C: 135 % of control
dose: 320.0 mg/kg/injection, schedule: Q01DX009 (ip), vehicle: Klucel (hydroxypropylcellulose) (HPC)
  survivor count: 0 of 5

## O=S1(=O)OCCO1
dose: 50.0 mg/kg/injection, schedule: Q01DX005 (ip), vehicle: saline
  survivor count: 0 of 6
dose: 100.0 mg/kg/injection, schedule: Q01DX005 (ip), vehicle: saline
  survivor count: 0 of 6

## CC1CN=C(c2ccc(NC(=O)NCCCCCCCCCNC(=O)Nc3ccc(C4=NCC(C)N4)cc3)cc2)N1 (stereo not given)
dose: 50.0 mg/kg/injection, schedule: Q01DX005 (ip), vehicle: saline + Tween-80 + alcohol
  T/C: 128 % of control
dose: 100.0 mg/kg/injection, schedule: Q01DX005 (ip), vehicle: saline + Tween-80 + alcohol
  survivor count: 0 of 6
dose: 200.0 mg/kg/injection, schedule: Q01DX005 (ip), vehicle: saline + Tween-80 + alcohol
  survivor count: 0 of 6

## CSc1c2c([nH]c(=O)c1C#N)-c1ccccc1CC2
dose: 60.0 mg/kg/injection, schedule: Q01DX005 (ip), vehicle: saline with Tween-80
  survivor count: 6 of 6

## CCCCOC(=O)/C=C(\Br)C(=O)OCCCC
[1]
  T/C: 126 % of control
dose: 50.0 mg/kg/injection, schedule: Q01DX009 (ip), vehicle: saline with Tween-80
  T/C: 126 % of control
dose: 100.0 mg/kg/injection, schedule: Q01DX009 (ip), vehicle: saline with Tween-80
  T/C: 146 % of control
[2]
  survivor count: 0 of 6

## O=NNc1ccc(S(=O)(=O)c2ccccc2)cn1
dose: 50.0 mg/kg/injection, schedule: Q01DX009 (ip), vehicle: sodium bicarbonate
  T/C: 147 % of control

## O=S(=O)(O)c1ccccc1O
dose: 100.0 mg/kg/injection, schedule: Q01DX001 (ip), vehicle: saline with Tween-80
  survivor count: 1 of 6
dose: 200.0 mg/kg/injection, schedule: Q01DX001 (ip), vehicle: saline with Tween-80
  survivor count: 0 of 6
dose: 400.0 mg/kg/injection, schedule: Q01DX001 (ip), vehicle: saline with Tween-80
  survivor count: 0 of 6

## C=C1c2cccc(O)c2C(O)=C2C(=O)[C@]3(O)C(O)=C(C(N)=O)C(=O)[C@@H](N(C)C)[C@@H]3[C@@H](O)[C@H]12
dose: 50.0 mg/kg/injection, schedule: Q01DX005 (ip), vehicle: Klucel (hydroxypropylcellulose) (HPC), evaluated on day 20
  T/C: 110 % of control
dose: 50.0 mg/kg/injection, schedule: Q01DX005 (ip), vehicle: Klucel (hydroxypropylcellulose) (HPC), evaluated on day 30
  T/C: 107 and 113 % of control
dose: 50.0 mg/kg/injection, schedule: Q01DX005 (ip), vehicle: Klucel (hydroxypropylcellulose) (HPC), evaluated on day 60
  T/C: 108 % of control
dose: 100.0 mg/kg/injection, schedule: Q01DX005 (ip), vehicle: Klucel (hydroxypropylcellulose) (HPC), evaluated on day 20
  T/C: 111 % of control
dose: 100.0 mg/kg/injection, schedule: Q01DX005 (ip), vehicle: Klucel (hydroxypropylcellulose) (HPC), evaluated on day 30
  T/C: 105, 109, 113, 118 % of control
dose: 100.0 mg/kg/injection, schedule: Q01DX005 (ip), vehicle: Klucel (hydroxypropylcellulose) (HPC), evaluated on day 60
  T/C: 110 % of control
dose: 200.0 mg/kg/injection, schedule: Q01DX005 (ip), vehicle: Klucel (hydroxypropylcellulose) (HPC), evaluated on day 20
  T/C: 153 % of control
dose: 200.0 mg/kg/injection, schedule: Q01DX005 (ip), vehicle: Klucel (hydroxypropylcellulose) (HPC), evaluated on day 30
  T/C: 119 and 136 % of control
dose: 200.0 mg/kg/injection, schedule: Q01DX005 (ip), vehicle: Klucel (hydroxypropylcellulose) (HPC), evaluated on day 60
  T/C: 133 % of control [9 of 10 alive]
dose: 277.77 mg/kg/injection, schedule: Q01DX005 (ip), vehicle: Klucel (hydroxypropylcellulose) (HPC)
  survivor count: 1 of 6
dose: 400.0 mg/kg/injection, schedule: Q01DX005 (ip), vehicle: Klucel (hydroxypropylcellulose) (HPC)
  survivor count: 0 of 6 and 1 of 10

## O=C(O)C(O)C1CCCCC1 (stereo not given)
[2]
  survivor count: 6 of 6

## CS(=O)CCCN=C=S (stereo not given)
dose: 150.0 mg/kg/injection, schedule: Q01DX009 (ip), vehicle: saline with Tween-80
  survivor count: 5 of 6
dose: 300.0 mg/kg/injection, schedule: Q01DX009 (ip), vehicle: saline with Tween-80
  survivor count: 0 of 6

## CCOP(=Nc1cc(C)ccc1C)(OCC)OCC
[3]
  survivor count: 2 of 6
[4]
  survivor count: 1 of 6

## COC1OC(C)C(=O)C2OC12 (stereo not given)
[4]
  survivor count: 1 of 6

## CCCCNCCCNCCCNC(=O)c1csc(-c2csc(CCNC(=O)C(NC(=O)C(C)C(O)C(C)NC(=O)C(NC(=O)c3nc(C(CC(N)=O)NCC(N)C(N)=O)nc(N)c3C)C(OC3OC(CO)C(O)C(O)C3OC3OC(CO)C(O)C(OC(N)=O)C3O)c3cnc[nH]3)C(C)O)n2)n1 (stereo not given)
dose: 1.25 mg/kg/injection, schedule: Q01DX009 (ip), vehicle: water
  T/C: 132 % of control
dose: 10.0 mg/kg/injection, schedule: Q01DX009 (ip), vehicle: water
  T/C: 126 and 132 % of control

## COc1cccc2c1C(=O)c1c(O)c3c(c(O)c1C2=O)C[C@@](O)(C(O)CO)C[C@@H]3OC1CC(NCc2ccccc2)C(O)C(C)O1 (stereo not given in full)
dose: 0.2 mg/kg/injection, schedule: Q01DX009 (ip), vehicle: water
  T/C: 127 and 135 % of control
dose: 0.39 mg/kg/injection, schedule: Q01DX009 (ip), vehicle: water
  T/C: 149 % of control
dose: 4.7 mg/kg/injection, schedule: Q04DX003 (ip), vehicle: water
  T/C: 126 % of control
dose: 6.25 mg/kg/injection, schedule: Q01DX009 (ip), vehicle: water
  T/C: 125 % of control
dose: 12.5 mg/kg/injection, schedule: Q01DX009 (ip), vehicle: water
  survivor count: 6 of 6
dose: 18.8 mg/kg/injection, schedule: Q04DX003 (ip), vehicle: water
  T/C: 129 % of control
dose: 37.5 mg/kg/injection, schedule: Q04DX003 (ip), vehicle: water
  T/C: 143 % of control

## CC(=O)C1C(=O)C(=O)N(c2ccccc2C)C1=O (stereo not given)
dose: 240.0 mg/kg/injection, schedule: Q01DX005 (ip), vehicle: saline with Tween-80
  survivor count: 0 of 6

## CCCn1c2nc(=O)[nH]c(=O)c-2[n+]([O-])c2ccccc21
dose: 25.0 mg/kg/injection, schedule: Q01DX001 (ip), vehicle: saline with Tween-80
  survivor count: 1 of 6

## CCCCP(=O)(CCCC)CCCC.CCCCP(=O)(CCCC)CCCC.CCCCP(=O)(CCCC)CCCC.CCCCP(=O)(CCCC)CCCC.[Mn+2].[O-][Cl+3]([O-])([O-])O
[2]
  T/C: 125 % of control [5 of 6 alive]
dose: 400.0 mg/kg/injection, schedule: Q01DX009 (ip), vehicle: saline + Tween-80 + alcohol
  survivor count: 0 of 6

## CC(=O)C1(c2ccccc2)CCN(c2c3ccccc3nc3ccccc23)CC1
dose: 400.0 mg/kg/injection, schedule: Q04DX003 (ip), vehicle: Klucel (hydroxypropylcellulose) (HPC)
  T/C: 128 % of control

## COC1(NS(=O)(=O)c2ccc(C)cc2)CC1
dose: 240.0 mg/kg/injection, schedule: Q01DX005 (ip), vehicle: Klucel (hydroxypropylcellulose) (HPC)
  survivor count: 0 of 6

Reference: PubChem BioAssay AID330 (DTP/NCI, 2004)
